Taken from: PubChem BioAssay AID493246 (Drosophila RNAi Screening Center, 2011)
Assay: 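Genome-wide search for dsRNAs that reduce cell number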 (primary screen). Cells: Drosophila Kc and S2R+ cells. Knock-down reagent: long dsRNA against Drosophila genes. Measurement: 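Cell number per well after knock-down, printed as raw plate values; calls were based on per-plate z-scores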. Scale: Kc cell number and S2R+ cell number: higher = more cells remaining. Active means: 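Active when the per-plate z-score of cell number is 3 or more in the direction of fewer cells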.
In all, the deposit lists about 21,000 reagents; this is an unselected part of those with a known target gene and a result. In the full data, 429 (2%) got an active call. 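Values are raw and not normalised between plates; calls rest on per-plate z-scores that were not deposited.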 Entries without a mark were called inactive. Reagents against one gene are numbered here. No sequences are given here. Not given: the amount of reagent, the time to read-out.

| gene knocked down | dsRNA no. | Kc cell number, rep 1 | Kc cell number, rep 2 | S2R+ cell number, rep 1 | S2R+ cell number, rep 2 |
| --- | --- | --- | --- | --- | --- |
| Irc | 1 | 1.43e6 | 1.53e6 | 1.14e6 | 1.15e6 |
| Pi3K68D | 1 | 1.43e6 | 1.51e6 | 1.21e6 | 1.19e6 |
| CG32196 | 1 | 1.74e6 | 1.90e6 | 1.27e6 | 1.46e6 |
| CG12909 | 1 | 1.46e6 | 1.52e6 | 1.02e6 | 1.13e6 |
| CG13838 | 1 | 1.44e6 | 1.39e6 | 9.81e5 | 1.10e6 |
| CG13946 | 1 | 1.73e6 | 1.74e6 | 1.09e6 | 1.23e6 |
| achi | 1 | 1.46e6 | 1.50e6 | 1.23e6 | 1.39e6 |
| mute | 1 | 1.50e6 | 1.57e6 | 7.64e5 | 8.68e5 |
| Toll-9 | 1 | 1.51e6 | 1.83e6 | 1.09e6 | 1.19e6 |
| AOX1 | 1 | 1.60e6 | 1.61e6 | 1.41e6 | 1.49e6 |
| capu | 1 | 1.48e6 | 1.49e6 | 1.02e6 | 1.15e6 |
| capu | 2 | 1.51e6 | 1.51e6 | 9.75e5 | 1.05e6 |
| capu | 3 | 1.69e6 | 1.69e6 | 1.25e6 | 1.42e6 |
| capu | 4 | 1.46e6 | 1.43e6 | 9.48e5 | 9.59e5 |
| CG13760 | 1 | 1.50e6 | 1.52e6 | 1.02e6 | 1.12e6 |
| Pi4KIIIalpha | 1 | 1.53e6 | 1.46e6 | 9.84e5 | 1.04e6 |
| CG1552 | 1 | 1.57e6 | 1.50e6 | 1.06e6 | 1.20e6 |
| Syx8 | 1 | 1.48e6 | 1.57e6 | 1.04e6 | 1.20e6 |
| Tomosyn | 1 | 4.75e5 | – | 8.77e5 | – |
| Tomosyn | 2 | 1.55e6 | 1.61e6 | 1.02e6 | 1.24e6 |
| Tomosyn | 3 | 5.91e5 | – | 8.80e5 | – |
| Tomosyn | 4 | 1.51e6 | 1.60e6 | 1.00e6 | 1.16e6 |
| iPLA2-VIA | 1 | 1.47e6 | 1.47e6 | 1.41e6 | 1.19e6 |
| disp | 1 | 1.52e6 | 1.64e6 | 1.26e6 | 1.35e6 |
| Bro | 1 | 1.36e6 | 1.28e6 | 1.02e6 | 1.26e6 |
| Gr85a | 1 | 1.76e6 | 1.69e6 | 1.22e6 | 1.36e6 |
| CG11369 | 1 | 1.57e6 | 1.58e6 | 1.13e6 | 1.23e6 |
| CG34197 (retired record) | 1 | 5.39e5 | – | 7.92e5 | – |
| Naam | 1 | 1.36e6 | 1.46e6 | 1.01e6 | 9.90e5 |
| Pss | 1 | 1.59e6 | 1.71e6 | 1.31e6 | 1.42e6 |
| CG6426 | 1 | 1.65e6 | 1.53e6 | 1.23e6 | 1.35e6 |
| CG11590 | 1 | 1.49e6 | 1.46e6 | 1.06e6 | 1.12e6 |
| Zfrp8 | 1 | 1.53e6 | 1.58e6 | 1.30e6 | 1.40e6 |
| CG31815 | 1 | 1.41e6 | 1.47e6 | 8.94e5 | 1.07e6 |
| CG34243 (retired record) | 1 | 1.52e6 | 1.65e6 | 1.02e6 | 1.20e6 |
| CG34243 (retired record) | 2 | 1.58e6 | 1.71e6 | 1.15e6 | 1.30e6 |
| CG31445 | 1 | 5.20e5 | – | 7.60e5 | – |
| trol | 1 | 1.09e6 | 1.40e6 | 1.03e6 | 1.06e6 |
| trol | 2 | 1.38e6 | 1.82e6 | 1.10e6 | 1.17e6 |
| trol | 3 | 1.44e6 | 1.43e6 | 9.89e5 | 1.08e6 |
| trol | 4 | 1.53e6 | 1.50e6 | 1.03e6 | 1.12e6 |
| Ssu72 | 1 | 1.56e6 | 1.65e6 | 1.19e6 | 1.31e6 |
| mex1 | 1 | 1.65e6 | 1.69e6 | 1.21e6 | 1.31e6 |
| janB | 1 | 1.56e6 | 1.56e6 | 1.09e6 | 1.23e6 |
| CG17633 | 1 | 1.67e6 | 1.67e6 | 1.20e6 | 1.47e6 |
| HLH4C | 1 | 1.31e6 | 1.25e6 | 1.03e6 | 1.15e6 |
| CG15611 | 1 | 1.32e6 | 1.44e6 | 9.66e5 | 1.07e6 |
| CG15611 | 2 | 1.51e6 | 1.55e6 | 1.11e6 | 1.17e6 |
| Obp99b | 1 | 1.27e6 | 1.27e6 | 8.63e5 | 9.63e5 |
| CG11608 | 1 | 1.66e6 | 1.77e6 | 1.24e6 | 1.35e6 |
| Nplp3 | 1 | 1.48e6 | 1.49e6 | 1.23e6 | 1.42e6 |
| CG8419 | 1 | 1.90e6 | 1.89e6 | 1.22e6 | 1.40e6 |
| CG31760 | 1 | 1.49e6 | 1.56e6 | 1.18e6 | 1.35e6 |
| ETH | 1 | 1.60e6 | 1.71e6 | 1.29e6 | 1.32e6 |
| CG14302 | 1 | 1.19e6 | 1.14e6 | 1.12e6 | 1.19e6 |
| Xxylt | 1 | 1.42e6 | 1.46e6 | 1.03e6 | 1.12e6 |
| CG34376 | 1 | 1.62e6 | 1.69e6 | 8.45e5 | 9.14e5 |
| CG34376 | 2 | 1.29e6 | 1.68e6 | 9.50e5 | 1.04e6 |
| CG34376 | 3 | 1.44e6 | 1.65e6 | 8.23e5 | 8.98e5 |
| CG17199 | 1 | 1.41e6 | 1.50e6 | 1.02e6 | 1.05e6 |
| CG6435 | 1 | 1.71e6 | 1.68e6 | 1.35e6 | 1.58e6 |
| lva | 1 | 6.58e5 | – | 8.67e5 | – |
| Rab3 | 1 | 1.46e6 | 1.58e6 | 1.03e6 | 1.09e6 |
| CG30338 | 1 | 1.47e6 | 1.51e6 | 9.92e5 | 1.07e6 |
| Cht5 | 1 | 1.63e6 | 1.54e6 | 1.33e6 | 1.31e6 |
| Lsp1gamma | 1 | 1.37e6 | 1.51e6 | 1.21e6 | 1.24e6 |
| CG3281 | 1 | 1.85e6 | 1.91e6 | 1.24e6 | 1.38e6 |
| MsrA | 1 | 1.48e6 | 1.71e6 | 1.39e6 | 1.45e6 |
| Peritrophin-15b | 1 | 1.64e6 | 1.67e6 | 1.25e6 | 1.40e6 |
| tomboy20 | 1 | 1.42e6 | 1.56e6 | 1.35e6 | 1.44e6 |
| kto | 1 | 1.44e6 | 1.50e6 | 1.28e6 | 1.28e6 |
| Tehao | 1 | 1.60e6 | 1.58e6 | 1.38e6 | 1.53e6 |
| CG42397 | 1 | 1.43e6 | 1.46e6 | 1.15e6 | 1.26e6 |
| Ir76a | 1 | 1.50e6 | 1.57e6 | 1.19e6 | 1.21e6 |
| ATPsynD | 1 | 1.44e6 | 1.51e6 | 7.74e5 | 8.73e5 |

An excerpt from above, showing only “S2R+ cell number, rep 1”:
capu #1: 1.02e6
capu #2: 9.75e5
capu #3: 1.25e6
capu #4: 9.48e5
CG13760: 1.02e6
Pi4KIIIalpha: 9.84e5
CG1552: 1.06e6
Syx8: 1.04e6
Tomosyn #1: 8.77e5
